PubChem BioAssay AID743454 – Peter MacCallum Cancer Centre – 2014
This is one part, drawn at random, of about 18,000 deposited reagents. Of all reagents, 450 (2.5%) are marked active. 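Single biological run; no consistent viability z cut-off exists, so the class columns, not z-scores, define the calls.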

Purpose: 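Genes whose loss kills vorinostat-resistant colon cancer cells under vorinostat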 (primary screen)
Cell system: human HCT116-VR colon cancer cells, selected for vorinostat resistance
Reagent: siRNA pool against human genes, 40 nM siRNA pool
Duration: vorinostat for 24 h, read-out about 72 h after transfection
Treatment: vorinostat at 2.5 µM final
Measurement: 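Cell viability by CellTiter-Fluor and caspase 3/7 activity by luminescence, each scaled to mock wells per plate, duplicates averaged, then robust z-scored over all plates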
Scale: viability robust z-score: higher = more viable cells than screen typical; caspase robust z-score: higher = more caspase 3/7 activity than screen typical
Active means: 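a knock-down is a hit when classed RV1 or RV2 for lowered viability, or CA1 or CA2 for caspase activation; those lethal without drug were dropped; hits were retested singly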

What did the screen give for EXOC4?
viability hit class: no change; caspase hit class: no change; viability robust z-score: 0.62; caspase robust z-score: 0.71; outcome: inactive

With SOFU1, how do the results read?
viability hit class: no change; caspase hit class: no change; viability robust z-score: 0.26; caspase robust z-score: 0.31; outcome: inactive

With CFAP43, what does the deposit list?
viability hit class: no change; caspase hit class: no change; viability robust z-score: 0.05; caspase robust z-score: 0.27; outcome: inactive

Which result is listed for SYT6?
viability hit class: no change; caspase hit class: no change; viability robust z-score: -0.33; caspase robust z-score: 1.44; outcome: inactive

For PUS1, what was measured?
viability hit class: no change; caspase hit class: no change; viability robust z-score: 1.44; caspase robust z-score: -1.08; outcome: inactive

How did the screen score SON?
viability hit class: no change; caspase hit class: no change; viability robust z-score: -3.54; caspase robust z-score: 4.22; outcome: inactive

For CFD, how do the results read?
viability hit class: no change; caspase hit class: no change; viability robust z-score: 0; caspase robust z-score: 0.44; outcome: inactive

With SLF2, what was measured?
viability hit class: no change; caspase hit class: no change; viability robust z-score: -0.84; caspase robust z-score: 3.34; outcome: inactive

With CDA, how do the results read?
viability hit class: no change; caspase hit class: no change; viability robust z-score: -1.43; caspase robust z-score: -1.09; outcome: inactive

How did the screen score CLLU1-AS1?
viability hit class: no change; caspase hit class: no change; viability robust z-score: -0.18; caspase robust z-score: 1.48; outcome: inactive

With CNKSR3, how do the results read?
viability hit class: no change; caspase hit class: no change; viability robust z-score: 0.31; caspase robust z-score: 0.78; outcome: inactive

With RBBP6, what does the deposit list?
viability hit class: no change; caspase hit class: no change; viability robust z-score: 1.52; caspase robust z-score: 0.88; outcome: inactive

An excerpt from the list above:
SYT6: viability hit class = no change; caspase hit class = no change; viability robust z-score = -0.33; caspase robust z-score = 1.44; outcome = inactive
PUS1: viability hit class = no change; caspase hit class = no change; viability robust z-score = 1.44; caspase robust z-score = -1.08; outcome = inactive
